Data as given in PubChem BioAssay AID1159599 (NIAID, 2016)
This is an unselected part of 756 deposited reagents. 130 of all reagents (17%) were called active. 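Calls are two-sided: actives include siRNAs that raised the Tnf reporter as well as ones that lowered it.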 Entries without a mark were called inactive. The record does not give: the amount of reagent.

Purpose: 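Mouse macrophage genes that control Tnf-alpha promoter output upon LPS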
Cells: mouse RAW264.7 G9 macrophage reporter clone cells
Reagent: single siRNA against mouse genes
Duration: 48 to 72 h after siRNA transfection, LPS for the last 16 h
Challenge: LPS (Salmonella minnesota R595), 16 h before fixation; dose not stated
Measurement: 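Nuclear mCherry from a Tnf promoter reporter imaged after LPS, background removed, robust z-score from per-plate median and MAD, averaged over replicates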
Reading the numbers: Tnf reporter z-score: higher = stronger Tnf promoter reporter signal after LPS
Rule for the call: 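Active when the replicate-mean Tnf reporter z-score is about -1.5 or lower, or about 1.5 or higher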
Meaning of the calls: active = strong change either way; inactive = little change

Nfkbib [SID303071392] gave Tnf reporter z-score, replicate mean 0.00367.
Nfkbib [SID303071393] showed Tnf reporter z-score, replicate mean -0.753.
Nfkbib [SID303071394] gave Tnf reporter z-score, replicate mean 0.0697.
Nfkbib [SID303071395] scored Tnf reporter z-score, replicate mean -0.85.
Silencing of Nfkbib [SID303071396] gave: Tnf reporter z-score, replicate mean -1.31.
Nfkbib [SID303071397] gave Tnf reporter z-score, replicate mean -0.731.
For Ticam2 [SID303071548], the values are Tnf reporter z-score, replicate mean -0.85.
For Ticam2 [SID303071549] the deposit lists Tnf reporter z-score, replicate mean -0.874.
For Ticam2 [SID303071550], the values are Tnf reporter z-score, replicate mean -1.71 (active).
After knock-down of Ticam2 [SID303071551] the results were Tnf reporter z-score, replicate mean -0.488.
For Ticam2 [SID303071552] the deposit lists Tnf reporter z-score, replicate mean -0.746.
Silencing of Ticam2 [SID303071553] gave: Tnf reporter z-score, replicate mean -1.45.
With knock-down of Ticam1 [SID303071542], the screen gave Tnf reporter z-score, replicate mean -0.895.
After knock-down of Ticam1 [SID303071543], the screen gave Tnf reporter z-score, replicate mean 1.4.
Silencing of Ticam1 [SID303071544] gave: Tnf reporter z-score, replicate mean -0.407.
Ticam1 [SID303071545] scored Tnf reporter z-score, replicate mean -1.08.
Depletion of Ticam1 [SID303071546] resulted in: Tnf reporter z-score, replicate mean -1.19.
Ticam1 [SID303071547] scored Tnf reporter z-score, replicate mean -1.76 (active).
Depletion of Tlr3 [SID303071206] gave: Tnf reporter z-score, replicate mean 0.314.
Tlr3 [SID303071207] showed Tnf reporter z-score, replicate mean -2.19 (active).
Tlr3 [SID303071208] scored Tnf reporter z-score, replicate mean -0.186.
Tlr3 [SID303071209] gave Tnf reporter z-score, replicate mean 0.688.
Tlr3 [SID303071210] showed Tnf reporter z-score, replicate mean 0.596.
Knock-down of Tlr3 [SID303071211] gave: Tnf reporter z-score, replicate mean 1.19.
After knock-down of Mapk10 [SID303071524], the screen gave Tnf reporter z-score, replicate mean 2.14 (active).
Silencing of Mapk10 [SID303071525] resulted in: Tnf reporter z-score, replicate mean 0.897.
With knock-down of Mapk10 [SID303071526] the results were Tnf reporter z-score, replicate mean -1.17.
Depletion of Mapk10 [SID303071527] resulted in: Tnf reporter z-score, replicate mean 0.548.
Silencing of Mapk10 [SID303071528] resulted in: Tnf reporter z-score, replicate mean -0.058.
After knock-down of Mapk10 [SID303071529], the screen gave Tnf reporter z-score, replicate mean -1.09.

Active calls, among the entries above:
Ticam2 [SID303071550]: Tnf reporter z-score, replicate mean = -1.71 (active)
Ticam1 [SID303071547]: Tnf reporter z-score, replicate mean = -1.76 (active)
Tlr3 [SID303071207]: Tnf reporter z-score, replicate mean = -2.19 (active)
Mapk10 [SID303071524]: Tnf reporter z-score, replicate mean = 2.14 (active)

Additional entries follow:
For Tnf [SID303071848], the values are Tnf reporter z-score, replicate mean -0.232.
Tnf [SID303071849] scored Tnf reporter z-score, replicate mean 1.06.
After knock-down of Tnf [SID303071850], the record shows Tnf reporter z-score, replicate mean -1.02.
Tnf [SID303071851] scored Tnf reporter z-score, replicate mean -0.547.
After knock-down of Tnf [SID303071852], the screen gave Tnf reporter z-score, replicate mean -0.191.
Tnf [SID303071853] scored Tnf reporter z-score, replicate mean -2.25 (active).
Map2k7 [SID303071506] scored Tnf reporter z-score, replicate mean 2.47 (active).
After knock-down of Map2k7 [SID303071507], the record shows Tnf reporter z-score, replicate mean -0.857.
Against Map2k7 [SID303071508] the deposit lists Tnf reporter z-score, replicate mean -1.11.
For Map2k7 [SID303071509] the deposit lists Tnf reporter z-score, replicate mean -0.566.
After knock-down of Map2k7 [SID303071510], the record shows Tnf reporter z-score, replicate mean 0.369.
For Map2k7 [SID303071511], the entry reads Tnf reporter z-score, replicate mean -0.778.
Silencing of Mapkapk2 [SID303071494] came out at: Tnf reporter z-score, replicate mean -2.35 (active).
For Mapkapk2 [SID303071495] the deposit lists Tnf reporter z-score, replicate mean 0.572.
Silencing of Mapkapk2 [SID303071496] resulted in: Tnf reporter z-score, replicate mean -0.304.
After knock-down of Mapkapk2 [SID303071497], the screen gave Tnf reporter z-score, replicate mean -1.17.
Against Mapkapk2 [SID303071498], the values are Tnf reporter z-score, replicate mean 1.81 (active).
With knock-down of Mapkapk2 [SID303071499], the record shows Tnf reporter z-score, replicate mean -0.42.
Map2k4 [SID303071500] scored Tnf reporter z-score, replicate mean 0.725.
Knock-down of Map2k4 [SID303071501] resulted in: Tnf reporter z-score, replicate mean -0.175.
With knock-down of Map2k4 [SID303071502], the screen gave Tnf reporter z-score, replicate mean -0.114.
After knock-down of Map2k4 [SID303071503], the record shows Tnf reporter z-score, replicate mean 0.8.
Map2k4 [SID303071504] scored Tnf reporter z-score, replicate mean -1.21.
Map2k4 [SID303071505] showed Tnf reporter z-score, replicate mean -1.04.
Knock-down of Tab1 [SID303071350] resulted in: Tnf reporter z-score, replicate mean 0.929.
Knock-down of Tab1 [SID303071351] resulted in: Tnf reporter z-score, replicate mean -2.27 (active).
Tab1 [SID303071352] gave Tnf reporter z-score, replicate mean -0.732.
With knock-down of Tab1 [SID303071353], the screen gave Tnf reporter z-score, replicate mean -1.55 (active).
Silencing of Tab1 [SID303071354] resulted in: Tnf reporter z-score, replicate mean 2.19 (active).
Tab1 [SID303071355] showed Tnf reporter z-score, replicate mean -1.43.
